From PMC4636238 come the findings set out here.

Protein sequences, listed by entry. Tags and fused reporters are not part of them. Residues count along the entry.
UniProt P15516, residues 20-43: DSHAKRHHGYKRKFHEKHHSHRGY

Assay [1] addresses biotinylated histatin 5 (human) (UniProt P15516). Nature of the assay: affinity purification with mass spectrometry; pull-down: biotinylated histatin 5 on immobilized streptavidin agarose beads; 300 ug lyophilized parotid saliva in pH 7.0 binding buffer, 4 h, 4°C; washed with PBS with 75 mM NaCl pH 5.0; eluted at pH 2.8; trypsin digestion, LC-ESI-MS/MS; only the target purified.

The target in the next assay is histatin 5 (human) (UniProt P15516). Nature of the assay: affinity purification with mass spectrometry; co-IP: synthetic histatin 5 held by mouse anti-histatin 3/5 monoclonal antibody on protein G magnetic beads; 300 ug pooled parotid saliva protein in PBS pH 7.5, 4°C, 24 h; washed with PBS; eluted with 2.5% acetic acid; in-solution or in-gel trypsin digestion, LC-ESI-MS/MS; only the target purified.

No constants are given. Whether binding was seen depends on the method and setting. In cells and extracts the contact can be indirect. Here binding means that the protein was enriched with, or labelled near, the bait; the list need not be complete.

B1: Junction plakoglobin (protein, UniProt P14923 1-745)
chain: MEVMNLMEQPIKVTEWQQTYTYDSGIHSGANTCVPSVSSKGIMEEDEACGRQYTLKKTTTYTQGVPPSQGDLEYQMSTTARAKRVREAMCPGVSGEDSSLLLATQVEGQATNLQRLAEPSQLLKSAIVHLINYQDDAELATRALPELTKLLNDEDPVVVTKAAMIVNQLSKKEASRRALMGSPQLVAAVVRTMQNTSDLDTARCTTSILHNLSHHREGLLAIFKSGGIPALVRMLSSPVESVLFYAITTLHNLLLYQEGAKMAVRLADGLQKMVPLLNKNNPKFLAITTDCLQLLAYGNQESKLIILANGGPQALVQIMRNYSYEKLLWTTSRVLKVLSVCPSNKPAIVEAGGMQALGKHLTSNSPRLVQNCLWTLRNLSDVATKQEGLESVLKILVNQLSVDDVNVLTCATGTLSNLTCNNSKNKTLVTQNSGVEALIHAILRAGDKDDITEPAVCALRHLTSRHPEAEMAQNSVRLNYGIPAIVKLLNQPNQWPLVKATIGLIRNLALCPANHAPLQEAAVIPRLVQLLVKAHQDAQRHVAAGTQQPYTDGVRMEEIVEGCTGALHILARDPMNRMEIFRLNTIPLFVQLLYSSVENIQRVAAGVLCELAQDKEAADAIDAEGASAPLMELLHSRNEGTATYAAAVLFRISEDKNPDYRKRVSVELTNSLFKHDPAAWEAAQSMIPINEPYGDDMDATYRPMYSSDVPLDPLEMHMDMDGDYPIDTYSDGLRPPYPTADHMLA
Turning to B1, the binding entry (in assay [1]; with histatin 5 (human)) was “binds” each time.
